From PubChem BioAssay AID1671190 (National Center for Advancing Translational Sciences (NCATS), 2021)
The campaign covered roughly 580,000 compounds. About 6,100 (1.1%) were called active. This list was built around the results that the source calls inconclusive (neither active nor inactive); the mix of calls is not that of the screen. The call rests on the fitted dose curve; in most records, active means well fitted inhibition curve with a large enough effect; inconclusive means small, poorly fitted or top-dose-only effect, or another doubt; inactive means no such curve, though single readings can be large or run the other way. Potencies beside an inconclusive call are fits to weak or partial responses and may not hold up.
On the % scale 0 is the no-effect control and ±100 the full control effect; potency means the concentration at half of the fitted maximal effect.

Chains of the proteins cited; added tags and fusions are not shown. Lines headed by an entry give the natural chain unless they say otherwise; changes in a name come on top.
UniProt P18054: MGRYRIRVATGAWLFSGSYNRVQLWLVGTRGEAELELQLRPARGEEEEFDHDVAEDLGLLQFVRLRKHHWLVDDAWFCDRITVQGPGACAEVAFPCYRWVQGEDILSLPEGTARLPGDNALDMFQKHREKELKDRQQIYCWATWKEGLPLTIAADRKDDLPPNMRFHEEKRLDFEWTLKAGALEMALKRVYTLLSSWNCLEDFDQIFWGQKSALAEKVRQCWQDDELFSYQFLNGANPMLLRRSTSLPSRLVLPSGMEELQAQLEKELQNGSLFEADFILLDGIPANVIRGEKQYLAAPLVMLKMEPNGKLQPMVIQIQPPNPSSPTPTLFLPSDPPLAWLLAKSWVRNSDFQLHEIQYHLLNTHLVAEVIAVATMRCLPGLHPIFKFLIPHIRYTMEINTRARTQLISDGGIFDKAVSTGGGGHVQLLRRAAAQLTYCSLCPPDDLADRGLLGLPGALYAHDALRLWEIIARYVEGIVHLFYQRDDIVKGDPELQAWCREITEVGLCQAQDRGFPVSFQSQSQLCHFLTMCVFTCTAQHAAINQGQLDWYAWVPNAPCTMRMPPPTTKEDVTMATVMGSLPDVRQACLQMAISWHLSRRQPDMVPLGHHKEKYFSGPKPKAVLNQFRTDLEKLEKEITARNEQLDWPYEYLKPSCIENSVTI

What follows are compounds tested against Polyunsaturated fatty acid lipoxygenase ALOX12 (Homo sapiens) (UniProt P18054) (assay: Primary qHTS assay for inhibitors of human arachidonate 12S-lipoxygenase (ALOX12): Round 2). Conditions: purified 12hLO, xylenol orange hydroperoxide absorbance; activity change, negative = inhibition: at 108 µM (top of the series) unless noted.
In short: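 Purified human 12hLO at 150 nM in 25 mM Hepes, 0.01% Triton X-100, pH 7.0, preincubated 15 min at room temperature with compound. Reaction started with 40 uM arachidonic acid, 30 min at room temperature. Hydroperoxide measured by Fe-xylenol orange, 573/405 nm absorbance ratio.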
For `CC(C)(C)NC(=O)C(c1ccc(-c2ccccc2)cc1)N(C[C@H]1CC[C@@H]([C@@H]2CC[C@H](CO)O2)O1)C(=O)c1ccc(C(C)(C)C)cc1` (stereo not given in full), the Potency was inconclusive: 39.8 µM [inhibitor, partial curve, poor fit].
`CCCCNc1nc(-c2ccc(NC(C)=O)cc2F)cs1` was tested, and the Potency was inconclusive: 100 µM [inhibitor, single point].
In the case of `COC(=O)c1c(NC(=O)Cc2coc3cc(C)ccc23)sc2c1CCC2`, the Potency is reported as “inactive”.
For `CCOc1ccc(-c2cc(C)n3nc(C(N)=O)cc3n2)cc1`, the Potency was inconclusive: 2 µM [inhibitor, full curve, poor fit].
`COc1ccc(C(=O)N2CCC3(CC2)OC(=O)N(Cc2ccc(O)cc2)C3(C)c2ccccc2)cc1` (stereo not given) was tested, and the Potency was inconclusive: 50.1 µM [inhibitor, partial curve, poor fit].
In the case of `O=C(ONc1ccc(N=NC(=O)c2ccccc2O)cc1)c1ccccc1`, the Potency is reported as inconclusive: 44.7 µM [inhibitor, partial curve].
For `Cc1ccsc1C1NC(=O)c2ccccc2N1` (stereo not given), the Potency was inconclusive: 79.4 µM [inhibitor, single point].
For `Nc1ccccc1C(=O)NCCCNC(=O)c1cnccn1`, the Potency was “inactive”.
`CCCCCn1nc(C(=O)OCC(=O)N2c3ccccc3NC(=O)C2(C)C)c2ccccc2c1=O` was tested, and the Potency was inconclusive: 12.6 µM [inhibitor, full curve].
With `Cc1cnc(C)c(Nc2nc(C(N)Cc3ccc(Cl)cc3)cs2)n1` (stereo not given) the Potency was inconclusive: 50.1 µM [inhibitor, partial curve, poor fit].
`Cc1ccc(C(=O)C(C)OC(=O)CN2C(=O)NC3(CCCC3)C2=O)cc1C` (stereo not given) was tested, and the Potency was inconclusive: 35.5 µM [inhibitor, single point].
For `COc1ccc(OC)c(NC(=O)CSc2ccc3ccccc3c2)c1`, the Potency was inconclusive: 56.2 µM [inhibitor, partial curve, poor fit].
For `CC(C)(C)CC(=O)C(C#N)C(=O)Nc1ccccc1Cl` (stereo not given), the Potency was “inactive”.
With `Cc1cccc(OCCNc2nc3c(c(=O)n(C)c(=O)n3C)n2C)c1` the Potency was inconclusive: 39.8 µM [inhibitor, partial curve, poor fit].
In the case of `CCOc1ccc(-c2nc(N)ncc2-c2ccccc2)c(O)c1`, the Potency is reported as “inactive”.
In the case of `O=C(NCc1cccs1)c1ccc2c(c1)N(Cc1cccc(F)c1)C(=O)c1ccccc1S2`, the Potency is reported as inconclusive: 56.2 µM [inhibitor, partial curve, poor fit].
`NN1C(=O)/C(=C2/Sc3ccccc3N2CCCS(=O)(=O)O)SC1=S` was tested, and the Potency was active: 14.1 µM.
With `Cn1c(SCC(=O)c2ccc(F)cc2)nnc1-c1cnccn1` the Potency was “inactive”.
For `O=C(NCc1ccc(F)cc1)Nc1c(NC2CCCCC2)c2ccccc2oc1=O`, the Potency was inconclusive: 0.355 µM [inhibitor, full curve, poor fit].
With `COc1cccc(NC(=S)NCc2ccc(F)cc2)c1` the Potency was inconclusive: 35.5 µM [inhibitor, partial curve, poor fit].
With `CCOc1nc2ccccc2nc1N1CCC(C(=O)NCc2cccc(C)c2)CC1` the activity change, negative = inhibition was inconclusive: -31% [inhibitor].
In the case of `Cc1ccccc1-c1cc(NCCN2CCOCC2)ncn1`, the Potency is reported as inconclusive: 6.31 µM [inhibitor, full curve, poor fit].
With `COc1cc(OC)c(C(=O)/C=C/c2ccccc2)c(O)c1O` the Potency was inconclusive: 44.7 µM [inhibitor, partial curve, poor fit].
With `COc1ccc(OC)c2sc(N(Cc3cccnc3)C(=O)c3ccco3)nc12` the Potency was inconclusive: 126 µM [inhibitor, partial curve, poor fit].
`C=CCNC(=O)c1cc(-c2ccccc2)sc1N` was tested, and the Potency was “inactive”.
In the case of `O=[N+]([O-])c1ccc(N2CCN(Cc3ccc([N+](=O)[O-])o3)CC2)cc1`, the Potency is reported as inconclusive: 7.08 µM [inhibitor, full curve].
For `CCN1CCN(c2ncc3c(n2)CC(c2ccccc2O)CC3=O)CC1` (stereo not given), the Potency was inconclusive: 39.8 µM [inhibitor, partial curve, poor fit].
In the case of `CC(=O)c1c(C)[nH]c(C(=O)CSc2nnc(C3CC3)o2)c1C`, the Potency is reported as “inactive”.
In the case of `N#Cc1c(N)sc2c1-c1ccccc1CC2`, the Potency is reported as inconclusive: 14.1 µM [inhibitor, full curve, poor fit].
For `COc1ccccc1C(=O)N1CCC(N2CCNC2=O)CC1`, the activity change, negative = inhibition was inactive: 4.12% [at 6.33 µM].
`COc1ccccc1NC(=O)C(C)n1nc(C(=O)O)c2ccccc2c1=O` (stereo not given) was tested, and the Potency was “inactive”.
For `COCC(=O)N1CCN(c2oc(-c3ccccc3C)nc2S(=O)(=O)c2ccc(C)cc2)CC1`, the Potency was inconclusive: 35.5 µM [inhibitor, partial curve, poor fit].
`COC(=O)Nc1cc(C)nc2ccccc12` was tested, and the Potency was “inactive”.
With `Cc1nn(CC(=O)NC(C)C(C)C)c(C)c1S(=O)(=O)N1CCCCC1` (stereo not given) the Potency was inconclusive: 2 µM [inhibitor, partial curve, poor fit].
`C#CCNC(=O)[C@@H]1CCCN1[C@@H](C(=O)NC)c1ccccc1F` was tested, and the Potency was inconclusive: 56.2 µM [inhibitor, single point].
In the case of `Cc1ccc(NC(=O)C2CCN(c3nn4cc(-c5ccc(C)cc5)nc4s3)CC2)cc1`, the Potency is reported as inconclusive: 126 µM [inhibitor, partial curve, poor fit].
`O=C1NC(c2ccc(Br)cc2)=N/C1=C/c1ccco1` was tested, and the Potency was inconclusive: 100 µM [inhibitor, partial curve, poor fit].
`CCOC(=O)/C(C#N)=C/c1cc2ccccc2nc1Cl` was tested, and the Potency was inconclusive: 56.2 µM [inhibitor, partial curve, poor fit].
In the case of `CC1CCN(c2ccc3c(c2)S(=O)(=O)c2cc(C(=O)O)ccc2C3=O)CC1`, the Potency is reported as inconclusive: 50.1 µM [inhibitor, partial curve, poor fit].
`CCOC(=O)C1(C)CCCN(C(=O)COc2ccccc2)C1` (stereo not given) was tested, and the Potency was inconclusive: 141 µM [inhibitor, partial curve, poor fit].
In the case of `Cc1ccccc1NC(=O)CCC(=O)OCCCC(F)(F)C(F)(F)F`, the Potency is reported as inconclusive: 5.62 µM [inhibitor, single point].
In the case of `CN(CC(=O)Nc1ccc(Cl)cc1)CC(=O)N1CCC(Cc2ccccc2)CC1`, the Potency is reported as inconclusive: 0.891 µM [inhibitor, full curve, poor fit].
For `O=C(Nc1ccccc1)c1cccc(C(=O)Nc2ccccc2)n1`, the Potency was “inactive”.
In the case of `Clc1ccccc1-c1nc(NCCN2CCOCC2)c2ccccc2n1`, the Potency is reported as inconclusive: 44.7 µM [inhibitor, partial curve, poor fit].
In the case of `CC(C)NC(=O)N1CCC(c2noc(-c3cnccn3)n2)C1` (stereo not given), the Potency is reported as “inactive”.
`Cn1c(Cl)nc2c1c(=O)n(Cc1ccccc1Cl)c(=O)n2C` was tested, and the Potency was “inactive”.
For `COc1ccc(CNC(=O)c2oc3c(c2C)-c2nn(Cc4ccc(Cl)cc4)cc2CC3)cc1`, the Potency was inconclusive: 3.16 µM [inhibitor, full curve, poor fit].
`CN(C)CCN1CCN([C@H]2CS(=O)(=O)N[C@@H]2COCc2ccccc2)CC1` was tested, and the Potency was inconclusive: 2.24 µM [inhibitor, full curve, poor fit].
For `O=C(Nc1ccc(Br)cc1)C1CCCN1S(=O)(=O)c1ccc(F)cc1` (stereo not given), the Potency was inconclusive: 44.7 µM [inhibitor, full curve, poor fit].
`C#CCN1C(=O)S/C(=C/c2cn(CC(=O)O)c3ccccc23)C1=O` was tested, and the Potency was inconclusive: 17.8 µM [inhibitor, full curve, poor fit].
With `CCC1OC(c2ccc([N+](=O)[O-])cc2)=Nc2ccccc21` (stereo not given) the Potency was inconclusive: 31.6 µM [inhibitor, partial curve, poor fit].
In the case of `CC1CCc2c(sc3nc(CN4CCN(S(=O)(=O)c5ccccc5[N+](=O)[O-])CC4)[nH]c(=O)c23)C1` (stereo not given), the Potency is reported as “inactive”.
With `NC1CCC(n2cc(C(=O)NCc3noc(-c4ccccc4)n3)nn2)CC1` (stereo not given) the Potency was “inactive”.
For `CC(C)C(=O)N1CCC2(CC1)Oc1ccc(Cl)cc1C(=O)C21CC(c2ccccc2)=NO1` (stereo not given), the Potency was inconclusive: 70.8 µM [inhibitor, partial curve, poor fit].
`Cc1cc(O)ccc1-c1cc(C(=O)NCc2cc(C(F)(F)F)cc(C(F)(F)F)c2)[nH]n1` was tested, and the Potency was inconclusive: 79.4 µM [inhibitor, single point].
With `CCOC(=O)[C@@H]1CCN(Cc2ccccc2)C[C@H]1c1ccccc1` the Potency was inconclusive: 112 µM [inhibitor, single point].
For `N#Cc1c(-c2ccccc2)nc(SCc2ccc([N+](=O)[O-])cc2)[nH]c1=O`, the Potency was inconclusive: 50.1 µM [inhibitor, partial curve, poor fit].
For `COc1ccc(C(C(=O)NC2CCCC2)N(CCCO)C(=O)Cn2nnc(-c3ccc(C)o3)n2)cc1` (stereo not given), the Potency was inconclusive: 56.2 µM [inhibitor, partial curve, poor fit].
With `Cc1ccccc1OCC(=O)Nc1c(NC2CCCCC2)c2ccccc2oc1=O` the Potency was inconclusive: 79.4 µM [inhibitor, single point].
For `O=C(NCCCn1ccnc1)C1CC2CCC1C2` (stereo not given), the Potency was inconclusive: 6.31 µM [inhibitor, partial curve, poor fit].
In the case of `NC(=O)c1cccnc1OC1CCN(C(=O)c2cccs2)C1` (stereo not given), the Potency is reported as inconclusive: 44.7 µM [inhibitor, partial curve].
`CCc1ccccc1N1CC23C=CC(O2)C(C(=O)O)C3C1=O` (stereo not given) was tested, and the Potency was “inactive”.
In the case of `CSc1ccc(/C=N/NC(=O)CNc2cccc3ccccc23)cc1`, the Potency is reported as “inactive”.
`CC1CCCC(N2CCN(C(=O)c3cccc(F)c3)CC2)C1` (stereo not given) was tested, and the Potency was inconclusive: 0.794 µM [inhibitor, full curve, poor fit].
With `O=C1CC(c2ccccc2)N(C(=O)CNC(=O)c2ccc3cc[nH]c3c2)CCCCCN1` (stereo not given) the Potency was “inactive”.
